Publication PMC8931530
Construct, isoform or probe ends are uncertain for at least one entry.

System: GST-TcMYB29a (Taxus chinensis)
Assay: EMSA
Conditions: LightShift Chemiluminescent EMSA Kit per manufacturer; pH and temperature not stated; recombinant protein; protein details: N-terminal GST (pGEX-4T-1); label: 3' biotin

“TACAATCCCCCGAGTACTCCCCCCTCCGTTAAGTTAAGCATCCTCCTCTTCCCCCA / TGGGGGAAGAGGAGGATCCTTAACTTAACGGAGGGGGGAGTACTCGGGGGATTGTA [B1 probe (TcT5OH promoter)]”: binds.
